PubChem BioAssay AID1508588, Peter MacCallum Cancer Centre, 2020
Screen: 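Genome-wide search for knock-downs that heighten vemurafenib action in melanoma cells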 (primary screen). Cell system: human WM266.4 melanoma cells (BRAF V600 mutant). Reagent: siRNA pool against human genes, 40 nM. Duration: 96 h from transfection to read-out. Conditions: vemurafenib 300 nM (about IC25), added 48 h after transfection, for 48 h; comparison arm got DMSO vehicle only. Measured: 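Cell gain (DAPI nuclei at end minus before drug, mean of two replicates) and medium lactate by absorbance per cell, both as ratio to non-targeting siRNA, also grouped into fold-change classes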. Direction: cell gain with vemurafenib: higher = more cell gain than with non-targeting siRNA; lactate per cell with vemurafenib: higher = more lactate made per cell. Call rule: 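a knock-down counts as enhancing when its fold-change classes with vehicle and with vemurafenib, taken together, show a stronger drug effect on cell gain or lactate per cell; exact class pairs not stated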. Calls: active = enhances vemurafenib effect; inactive = no enhancement seen.
Shown is one part, drawn at random, of about 18,000 deposited reagents. In the full data, 790 (4.4%) are marked active. 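Calls rest on a combination of fold-change classes in drug and vehicle arms, not all shown here.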

Which result is listed for KISS1?
cell gain with vemurafenib: 0.48; lactate per cell with vemurafenib: 1.27; outcome: inactive

How did the screen score CACTIN?
cell gain with vemurafenib: 0.58; lactate per cell with vemurafenib: 0.87; outcome: inactive

Which result is listed for TNN?
cell gain with vemurafenib: 0.59; lactate per cell with vemurafenib: 0.83; outcome: inactive

With LINC00207, what was measured?
cell gain with vemurafenib: 0.38; lactate per cell with vemurafenib: 1.54; outcome: inactive

How did the screen score EDIL3?
cell gain with vemurafenib: 1.08; lactate per cell with vemurafenib: 0.4; outcome: inactive

What is on record for MUC2?
cell gain with vemurafenib: 0.71; lactate per cell with vemurafenib: 0.25; outcome: inactive

Which result is listed for SULT1C3?
cell gain with vemurafenib: 0.56; lactate per cell with vemurafenib: 0.73; outcome: inactive

For MARS1, how do the results read?
cell gain with vemurafenib: 0.22; lactate per cell with vemurafenib: 2.28; outcome: inactive

With CD59, what was measured?
cell gain with vemurafenib: 0; lactate per cell with vemurafenib: 2.21; outcome: inactive

For NSUN5, what does the deposit list?
cell gain with vemurafenib: 0.88; lactate per cell with vemurafenib: 0.57; outcome: inactive

What is on record for IFT140?
cell gain with vemurafenib: 0.8; lactate per cell with vemurafenib: 0.58; outcome: inactive

Looked up above.
For “lactate per cell with vemurafenib”, MUC2 shows 0.25
Under “lactate per cell with vemurafenib”, MARS1 reads 2.28
KISS1, lactate per cell with vemurafenib → 1.27
Under “cell gain with vemurafenib”, CACTIN shows 0.58

The list goes on:
What is on record for HPS3?
cell gain with vemurafenib: 0.67; lactate per cell with vemurafenib: 1.23; outcome: inactive

With ZMYM6, what does the deposit list?
cell gain with vemurafenib: 0.76; lactate per cell with vemurafenib: 1.52; outcome: inactive

Which result is listed for BDP1?
cell gain with vemurafenib: 0.44; lactate per cell with vemurafenib: 0.7; outcome: inactive

How did the screen score PDHA1?
cell gain with vemurafenib: 0.61; lactate per cell with vemurafenib: -0.34; outcome: inactive

What did the screen give for XRCC1?
cell gain with vemurafenib: 0.73; lactate per cell with vemurafenib: 0.41; outcome: inactive

With ITPR3, what was measured?
cell gain with vemurafenib: 0.93; lactate per cell with vemurafenib: 0.24; outcome: inactive

Which result is listed for DIPK1A?
cell gain with vemurafenib: 0.72; lactate per cell with vemurafenib: 0.72; outcome: inactive

Which result is listed for GADD45A?
cell gain with vemurafenib: 1.03; lactate per cell with vemurafenib: 0.73; outcome: inactive

What is on record for IL17C?
cell gain with vemurafenib: 0.66; lactate per cell with vemurafenib: 0.93; outcome: inactive

For SPX, what does the deposit list?
cell gain with vemurafenib: 0.93; lactate per cell with vemurafenib: 0.82; outcome: inactive

With PHLDA2, how do the results read?
cell gain with vemurafenib: 0.58; lactate per cell with vemurafenib: 0.9; outcome: inactive

How did the screen score SPATA12?
cell gain with vemurafenib: 0.5; lactate per cell with vemurafenib: 0.87; outcome: inactive

With AGO1, what was measured?
cell gain with vemurafenib: 0.15; lactate per cell with vemurafenib: 1.84; outcome: inactive

How did the screen score E2F4?
cell gain with vemurafenib: 1.09; lactate per cell with vemurafenib: 0.76; outcome: inactive

Which result is listed for OR51G1?
cell gain with vemurafenib: 0.64; lactate per cell with vemurafenib: 0.43; outcome: inactive

For FYTTD1, what was measured?
cell gain with vemurafenib: 1; lactate per cell with vemurafenib: 0.68; outcome: inactive
